Measured values reported in article PMC12373852.
No constants are given. Whether binding was seen depends on the method and setting. For some assays here: In cells and extracts the contact can be indirect. Some results given as binding are weak or reduced against the parent protein; the word gives no strength. Sequences can lack the tags named with a protein.

Chains of the proteins cited; added tags and fusions are not shown.
UniProt P54132: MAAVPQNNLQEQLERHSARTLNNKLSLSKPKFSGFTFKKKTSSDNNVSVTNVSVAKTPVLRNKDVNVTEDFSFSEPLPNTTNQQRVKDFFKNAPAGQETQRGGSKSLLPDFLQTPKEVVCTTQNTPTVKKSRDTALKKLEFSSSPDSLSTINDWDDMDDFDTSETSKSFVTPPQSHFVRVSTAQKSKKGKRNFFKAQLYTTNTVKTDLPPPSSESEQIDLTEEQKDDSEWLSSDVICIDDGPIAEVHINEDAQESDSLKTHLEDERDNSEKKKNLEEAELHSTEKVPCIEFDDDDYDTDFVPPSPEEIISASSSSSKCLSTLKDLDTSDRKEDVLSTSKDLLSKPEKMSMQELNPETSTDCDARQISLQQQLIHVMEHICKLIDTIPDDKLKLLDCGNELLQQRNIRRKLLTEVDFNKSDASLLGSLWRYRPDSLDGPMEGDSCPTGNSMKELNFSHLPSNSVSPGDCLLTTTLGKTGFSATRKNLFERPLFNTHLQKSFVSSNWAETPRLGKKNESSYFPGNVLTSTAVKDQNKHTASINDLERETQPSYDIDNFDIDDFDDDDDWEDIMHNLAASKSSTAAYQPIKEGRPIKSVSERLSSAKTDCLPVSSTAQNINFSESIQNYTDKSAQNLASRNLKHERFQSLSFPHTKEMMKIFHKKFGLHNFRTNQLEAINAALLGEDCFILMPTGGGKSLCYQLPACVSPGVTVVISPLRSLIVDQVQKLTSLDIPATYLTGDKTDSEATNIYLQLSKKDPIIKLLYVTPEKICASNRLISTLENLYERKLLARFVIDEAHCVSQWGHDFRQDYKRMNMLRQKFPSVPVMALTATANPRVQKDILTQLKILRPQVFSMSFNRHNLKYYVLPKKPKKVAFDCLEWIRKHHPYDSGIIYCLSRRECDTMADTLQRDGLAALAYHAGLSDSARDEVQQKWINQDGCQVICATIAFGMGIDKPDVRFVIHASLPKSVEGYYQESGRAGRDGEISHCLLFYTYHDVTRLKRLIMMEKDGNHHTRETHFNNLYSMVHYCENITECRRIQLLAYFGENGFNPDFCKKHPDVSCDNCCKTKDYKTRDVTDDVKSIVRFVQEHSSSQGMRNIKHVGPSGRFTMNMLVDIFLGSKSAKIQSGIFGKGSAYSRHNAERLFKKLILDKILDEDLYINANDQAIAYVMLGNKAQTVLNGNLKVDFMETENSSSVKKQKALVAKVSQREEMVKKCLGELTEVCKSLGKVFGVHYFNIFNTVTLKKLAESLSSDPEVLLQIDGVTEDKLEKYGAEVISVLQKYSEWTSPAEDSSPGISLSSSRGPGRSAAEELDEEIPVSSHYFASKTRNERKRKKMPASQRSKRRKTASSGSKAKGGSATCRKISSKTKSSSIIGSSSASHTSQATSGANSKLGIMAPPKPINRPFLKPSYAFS

T1: PICH-mAID-mClover3 (endogenously tagged PLK1-interacting checkpoint helicase) (human (endogenous in RPE1)) (UniProt Q2NKX8)
T1 sequence: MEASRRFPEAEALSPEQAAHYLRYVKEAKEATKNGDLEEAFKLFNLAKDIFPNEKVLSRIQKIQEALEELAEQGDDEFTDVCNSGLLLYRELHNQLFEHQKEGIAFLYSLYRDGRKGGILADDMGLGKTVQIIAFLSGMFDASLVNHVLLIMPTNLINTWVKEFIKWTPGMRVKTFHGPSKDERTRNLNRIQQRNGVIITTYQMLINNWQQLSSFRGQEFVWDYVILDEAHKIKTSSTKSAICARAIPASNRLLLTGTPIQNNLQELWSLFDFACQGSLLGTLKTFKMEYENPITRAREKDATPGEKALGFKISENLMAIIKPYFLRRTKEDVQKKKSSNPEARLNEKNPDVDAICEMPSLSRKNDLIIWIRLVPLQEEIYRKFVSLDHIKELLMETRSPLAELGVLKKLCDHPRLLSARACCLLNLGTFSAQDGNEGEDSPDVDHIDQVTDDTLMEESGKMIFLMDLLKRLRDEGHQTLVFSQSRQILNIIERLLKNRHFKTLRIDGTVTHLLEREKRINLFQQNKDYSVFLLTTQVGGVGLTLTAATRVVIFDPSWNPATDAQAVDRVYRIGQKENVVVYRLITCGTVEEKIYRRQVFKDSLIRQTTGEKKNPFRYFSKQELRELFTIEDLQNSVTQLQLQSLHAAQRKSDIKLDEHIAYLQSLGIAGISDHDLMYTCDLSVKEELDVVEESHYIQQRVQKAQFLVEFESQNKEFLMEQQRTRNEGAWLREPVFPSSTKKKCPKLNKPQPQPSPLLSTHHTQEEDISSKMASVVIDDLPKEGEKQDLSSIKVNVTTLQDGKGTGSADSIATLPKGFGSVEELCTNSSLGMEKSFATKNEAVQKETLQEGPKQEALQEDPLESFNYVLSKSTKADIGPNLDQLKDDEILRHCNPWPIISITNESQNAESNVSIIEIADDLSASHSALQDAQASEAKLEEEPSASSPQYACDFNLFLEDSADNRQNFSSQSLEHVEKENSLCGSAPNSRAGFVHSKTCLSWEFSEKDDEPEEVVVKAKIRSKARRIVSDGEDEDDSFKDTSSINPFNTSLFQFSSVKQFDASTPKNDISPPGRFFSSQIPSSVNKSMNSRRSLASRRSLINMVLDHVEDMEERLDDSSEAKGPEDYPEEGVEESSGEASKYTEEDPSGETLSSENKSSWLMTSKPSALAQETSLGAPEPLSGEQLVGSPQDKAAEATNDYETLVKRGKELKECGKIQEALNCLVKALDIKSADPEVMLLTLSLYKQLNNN

T2: CENPB-mCherry-RMI1 (UniProt Q9H9A7)
T2 sequence: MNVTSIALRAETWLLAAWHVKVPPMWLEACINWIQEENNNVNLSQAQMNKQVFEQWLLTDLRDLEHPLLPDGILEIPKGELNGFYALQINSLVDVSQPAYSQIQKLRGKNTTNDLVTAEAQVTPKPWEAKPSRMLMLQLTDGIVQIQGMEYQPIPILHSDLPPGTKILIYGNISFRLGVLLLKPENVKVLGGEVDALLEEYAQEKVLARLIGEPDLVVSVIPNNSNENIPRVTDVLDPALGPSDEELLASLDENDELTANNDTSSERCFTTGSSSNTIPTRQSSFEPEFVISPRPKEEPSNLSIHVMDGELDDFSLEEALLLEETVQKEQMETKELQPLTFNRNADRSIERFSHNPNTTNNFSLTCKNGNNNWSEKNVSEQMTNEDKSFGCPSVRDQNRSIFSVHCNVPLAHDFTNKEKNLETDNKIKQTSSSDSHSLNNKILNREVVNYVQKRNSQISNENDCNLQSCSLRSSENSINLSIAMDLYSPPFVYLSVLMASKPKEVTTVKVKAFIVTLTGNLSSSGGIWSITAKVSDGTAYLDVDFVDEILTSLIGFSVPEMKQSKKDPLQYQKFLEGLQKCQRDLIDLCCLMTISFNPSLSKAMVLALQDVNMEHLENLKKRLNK

B1: EGFP-TOP3A (protein, UniProt Q13472 1-1001)
chain: MIFPVARYALRWLRRPEDRAFSRAAMEMALRGVRKVLCVAEKNDAAKGIADLLSNGRMRRREGLSKFNKIYEFDYHLYGQNVTMVMTSVSGHLLAHDFQMQFRKWQSCNPLVLFEAEIEKYCPENFVDIKKTLERETRQCQALVIWTDCDREGENIGFEIIHVCKAVKPNLQVLRARFSEITPHAVRTACENLTEPDQRVSDAVDVRQELDLRIGAAFTRFQTLRLQRIFPEVLAEQLISYGSCQFPTLGFVVERFKAIQAFVPEIFHRIKVTHDHKDGIVEFNWKRHRLFNHTACLVLYQLCVEDPMATVVEVRSKPKSKWRPQALDTVELEKLASRKLRINAKETMRIAEKLYTQGYISYPRTETNIFPRDLNLTVLVEQQTPDPRWGAFAQSILERGGPTPRNGNKSDQAHPPIHPTKYTNNLQGDEQRLYEFIVRHFLACCSQDAQGQETTVEIDIAQERFVAHGLMILARNYLDVYPYDHWSDKILPVYEQGSHFQPSTVEMVDGETSPPKLLTEADLIALMEKHGIGTDATHAEHIETIKARMYVGLTPDKRFLPGHLGMGLVEGYDSMGYEMSKPDLRAELEADLKLICDGKKDKFVVLRQQVQKYKQVFIEAVAKAKKLDEALAQYFGNGTELAQQEDIYPAMPEPIRKCPQCNKDMVLKTKKNGGFYLSCMGFPECRSAVWLPDSVLEASRDSSVCPVCQPHPVYRLKLKFKRGSLPPTMPLEFVCCIGGCDDTLREILDLRFSGGPPRASQPSGRLQANQSLNRMDNSQHPQPADSRQTGSSKALAQTLPPPTAAGESNSVTCNCGQEAVLLTVRKEGPNRGRQFFKCNGGSCNFFLWADSPNPGAGGPPALAYRPLGASLGCPPGPGIHLGGFGNPGDGSGSGTSCLCSQPSVTRTVQKDGPNKGRQFHTCAKPREQQCGFFQWVDENTAPGTSGAPSWTGDRGRTLESEARSKRPRASSSDMGSTAKKPRKCSLCHQPGHTRPFCPQNR

What was measured:
[1] = target: T1, PICH-mAID-mClover3 (endogenously tagged PLK1-interacting checkpoint helicase) (human (endogenous in RPE1)); assay: co-IP; nocodazole/MG132-arrested RPE1 PICH-mAID-mClover3 cells with or without PLK1i (BI2536, 100 nM, last 1 hr); lysis buffer B with benzonase; anti-BLM with Protein A/G beads or GFP-Trap for PICH; washes 150 mM NaCl
[2] = target: T2, CENPB-mCherry-RMI1; assay: tethering to centromeres by CENPB fusion and recruitment of the partner seen by microscopy; time-lapse live-cell imaging of EGFP-TOP3A HeLa cells expressing CENPB-mCherry fusions, late G2 to the next G1

| Molecule | binding [1] | binding [2] |
| --- | --- | --- |
| Bloom syndrome DNA helicase BLM, endogenous (from UniProt P54132 1-1417) | binds |  |
| B1 |  | binds |
